Taken from: PubChem BioAssay AID1259425 (University of Nebraska Medical Center, 2018)
This is an unselected part of about 14,000 reagents. Further read-outs or replicates are left out here. No sequences are given here. Not given: the time to read-out.

Assay: 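Seek colon cancer weak points whose silencing resembles KSR1 loss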 (primary screen)
Cells: HCT116 human colon cancer cells
Reagent: siRNA pool against human genes, 50 nM siRNA
Read-out: 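mRNA of six signature genes measured together by branched-DNA assay after 50 nM siRNA pool, blank removed, divided by geometric mean of two housekeeping genes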
Scale: BNIP3L mRNA: higher = more BNIP3L transcript after knockdown

{"Gene": "FGL2", "BNIP3L mRNA, set 1": 0.068}
{"Gene": "PARP10", "BNIP3L mRNA, set 1": 0.2}
{"Gene": "SNRNP200", "BNIP3L mRNA, set 1": 0.0864}
{"Gene": "SEL1L2", "BNIP3L mRNA, set 1": 0.156}
{"Gene": "BMP8B", "BNIP3L mRNA, set 1": 0.201}
{"Gene": "PHYHIP", "BNIP3L mRNA, set 1": 0.0949}
{"Gene": "KCNJ9", "BNIP3L mRNA, set 1": 0.0834}
{"Gene": "TXK", "BNIP3L mRNA, set 1": 0.126}
{"Gene": "LTBR", "BNIP3L mRNA, set 1": 0.0586}
{"Gene": "PTPRCAP", "BNIP3L mRNA, set 1": 0.0951}
{"Gene": "TSKS", "BNIP3L mRNA, set 1": 0.0605}
{"Gene": "NPC1L1", "BNIP3L mRNA, set 1": 0.0995}
{"Gene": "DNAJC11", "BNIP3L mRNA, set 1": 0.0673}
{"Gene": "USP30", "BNIP3L mRNA, set 1": 0.104}
{"Gene": "COPS3", "BNIP3L mRNA, set 1": 0.135}
{"Gene": "BEND3", "BNIP3L mRNA, set 1": 0.102}
{"Gene": "NAT2", "BNIP3L mRNA, set 1": 0.103}
{"Gene": "SPOCK1", "BNIP3L mRNA, set 1": 0.0527}
{"Gene": "ASIC4", "BNIP3L mRNA, set 1": 0.356}
{"Gene": "NAGK", "BNIP3L mRNA, set 1": 0.158}
{"Gene": "SVIL", "BNIP3L mRNA, set 1": 0.0658}
{"Gene": "HSD17B7", "BNIP3L mRNA, set 1": 0.0637}
{"Gene": "LDLRAP1", "BNIP3L mRNA, set 1": 0.11}
{"Gene": "PYCR3", "BNIP3L mRNA, set 1": 0.0857}
{"Gene": "TSC2", "BNIP3L mRNA, set 1": 0.101}
{"Gene": "C5AR1", "BNIP3L mRNA, set 1": 0.0973}
{"Gene": "EIF4E2", "BNIP3L mRNA, set 1": 0.14}
{"Gene": "MTFR1", "BNIP3L mRNA, set 1": 0.132}
